# Among all 320,000 compounds or so, about 2,100 (0.66%) were called active. The shares of active, inactive and inconclusive entries below differ from those in the screen. Calls come from the whole dose curve; as a rule, active = well fitted inhibition curve with a large enough effect in the signal ratio, with a control signal flat (not every such curve was filed as active); inconclusive = small, poorly fitted or top-dose-only effect, or effect the other way, or a change in a side signal; inactive = flat fitted curve, though single readings scatter; the % refers to the signal ratio. A potency beside an inconclusive call is a rough fit, not a confirmed value.
# Test: qHTS Assay for Lipid Storage Modulators in Drosophila S3 Cells
# Conditions: BODIPY lipid droplet fluorescence, 18-24 h, cells fed with added oleic acid; lipid storage change, negative = inhibition: at 46.1 µM (top of the series) unless noted
# Procedure, shortened: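 Laser-scanning cytometry quantifies lipid droplet accumulation (500–530 nm total intensity; droplet/cell object ratio) in oleic acid-fed (400 uM added) Drosophila S3 cells treated with a concentration series. 20 uM Triacsin C defined 100% inhibition.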
# % is set by controls: 0 for no effect and ±100 for the full control effect; potency is the fitted concentration of half-maximal effect.
SMILES,"lipid storage change, negative = inhibition",Potency
COc1cc(C(=O)NCCNc2nc3cc(C)ccc3cc2C#N)cc(OC)c1OC,inconclusive: -69.1%,
COC(=O)c1sccc1NC(=S)N1CCN(c2cccc(C)c2C)CC1,,"inconclusive: 8.2 µM [rising, partial curve]"
Cc1nc(NC(=O)c2ccc(Br)o2)ccc1Br,,"inconclusive: 29.1 µM [activator, single point]"
O=C(COC(=O)CNC(=O)c1ccco1)NCCN1C(=O)CSC1=O,inconclusive: -71.3%,
O=C(Cn1ccc(NC(=O)OCc2ccccc2)nc1=O)NCCc1c[nH]c2ccccc12,,"inconclusive: 29.1 µM [falling, single point]"
CC(C)=CC(=O)N1CC[C@@H](N2CCN(c3ccccc3F)CC2)[C@H](O)C1,,"inconclusive: 3.66 µM [activator, full curve, poor fit]"
Cc1cnc(C(=O)OCc2c(C)cc(C(C)(C)C)cc2C)cn1,inactive,
Cc1cc(NC(=O)CSc2nc3ccccc3n2CC(=O)N2CC(C)CC(C)C2)no1 (stereo unspecified),inconclusive: 9.51%,
O=C(O)c1ccc(NC(=O)C2C3CCC(C3)C2C(=O)O)cc1 (stereo unspecified),inconclusive: 6.61%,
c1nc2ccc(Cc3ccc4nc[nH]c4c3)cc2[nH]1,,"inconclusive: 4.11 µM [activator, partial curve, poor fit]"
Fc1cccc(/C=N/NC(=S)Nc2ccccc2Cl)c1,,"inconclusive: 0.291 µM [activator, partial curve]"
Cc1ccc(Oc2ncc(-c3ccc(Cl)cc3)cn2)cc1,inconclusive: 6.68%,
Cc1ccccc1Nc1nc(N)nc(CSc2nnnn2C)n1,,"inconclusive: 2.31 µM [activator, full curve, poor fit]"
COc1ccc(C(=O)OCc2ccccc2F)cc1S(=O)(=O)N1CCCC1,inconclusive: 13.3%,
N#Cc1cccc(C(=O)Nc2cccc(S(=O)(=O)N3CCCC3)c2)c1,inconclusive: -71.2%,
CC(=O)Nc1ccc(NC(=O)CSc2nnc(NC(=O)c3ccco3)s2)cc1,,"inconclusive: 4.11 µM [activator, full curve, poor fit]"
COCCNC(=S)Nc1cc2oc3ccccc3c2cc1OC,inconclusive: 21%,
CCCNC(=O)COC(=O)CCC(=O)c1ccc(F)cc1,,"inconclusive: 20.6 µM [falling, single point]"
O=C(C1=C(O)C(=O)N(c2ncccn2)C1c1cccc(Cl)c1)c1ccco1 (stereo unspecified),,active: 6.51 µM
COc1cccc(-n2nnnc2SCC(=O)NC2CCCCC2)c1,inconclusive: -63.3%,
COc1ccc(C(=O)NCCn2nc(C)cc2C)cc1OC1CCN(C(C)=O)CC1,,"inconclusive: 23.1 µM [activator, single point]"
O=C(CNCCC1=CCCCC1)Nc1ccccc1N1CCCCCC1,inconclusive: -39.6%,
Cc1ccc(S(=O)(=O)N2CCN(C(=O)c3ccc(S(=O)(=O)N4CCCC4)cc3)CC2)cc1,,"inconclusive: 0.184 µM [falling, full curve, poor fit]"

SMILES,"lipid storage change, negative = inhibition",Potency
CCOc1ccccc1-c1nc2c([nH]1)c(=O)n(C)c(=O)n2C,inconclusive: 38.5%,
COC(=O)c1ccccc1S(=O)(=O)Nc1ccc2cn[nH]c2c1,,"inconclusive: 0.058 µM [activator, full curve, poor fit]"
Cc1cccc(OCCNC(=S)NC(=O)c2cccnc2)c1,inconclusive: 26.5%,
COC(CN(C(=O)CCl)C(C(=O)NC1CCCCC1)c1ccccc1C)OC (stereo unspecified),,"inconclusive: 20.6 µM [falling, partial curve, poor fit]"
CCN1C(=O)C2(C(C#N)=C(N)Oc3cc(C)oc(=O)c32)c2ccccc21 (stereo unspecified),inconclusive: 22.4%,
COC(=O)c1ccc(CN2CCCC(C(=O)c3ccccc3OC)C2)cc1 (stereo unspecified),inconclusive: 29.3%,
Cc1ccc(SCc2nc3ccccc3n2CC(=O)Nc2ccccc2)cc1,inconclusive: 16.3%,
CCCN1CCN(C(=S)Nc2sc(CC)cc2C(=O)OC)CC1,inconclusive: -16%,
CCSc1nnc(NC(=O)c2cccc(S(=O)(=O)N(C)c3ccccc3)c2)s1,,"inconclusive: 18.4 µM [rising, single point]"
CCCn1c(N)c(C(=O)CSc2nc3ccccc3c(=O)n2-c2ccc(OC)cc2)c(=O)[nH]c1=O,inconclusive: 18.7%,
COc1ccccc1NC(=O)CSc1nnc(Cc2cccn2C)n1-c1ccc(F)cc1,,"inconclusive: 3.66 µM [activator, partial curve, poor fit]"
Cc1ccc(C(=O)/C=C\C(=O)c2ccc(C)cc2)cc1,,"inconclusive: 16.4 µM [cytotoxic, single point]"
O=C(N/N=C/c1ccccn1)c1ccc(NC(=O)c2ccccc2Cl)cc1,,"inconclusive: 6.51 µM [activator, partial curve, poor fit]"
Cc1ccc(CNC(=O)CN2C(=O)NC(C)(c3ccccc3Cl)C2=O)cc1 (stereo unspecified),,"inconclusive: 6.51 µM [rising, single point]"
COc1cccc(OCCNC(=O)Nc2cc(F)c(F)cc2Cl)c1,,"inconclusive: 0.116 µM [falling, partial curve, poor fit]"
NNc1ccc(Cc2ccc(Cl)cc2Cl)nn1,,"inconclusive: 6.51 µM [falling, single point]"
COc1ccc(N(Cc2ccccc2)S(=O)(=O)c2cccc(C(=O)NCC3CCCO3)c2)cc1 (stereo unspecified),inconclusive,
COC(=O)c1nnn(CC(=O)NC(=O)Nc2cccc(Cl)c2C)c1C(=O)OC,inconclusive: 10.5%,
CCOC(=O)c1cnc2nc(C)[nH]n2c1=O,inconclusive: -14.4%,
COC(=O)N/N=C/c1cn(Cc2ccc(Cl)cc2Cl)c2ccccc12,,"inconclusive: 9.2 µM [falling, partial curve, poor fit]"
COCCCn1c(SCC(=O)c2ccccc2)nc2ccccc2c1=O,inconclusive: 1.03%,
O=C(CN(C(=O)c1csnn1)c1ccc(F)cc1)NCc1ccc2c(c1)OCO2,inconclusive: 10.8%,
Cc1cccc(N)c1-c1c(C)cccc1N,inconclusive: 10.5%,

# A different layout for some results above.
SMILES | lipid storage change, negative = inhibition | Potency
Cc1ccc(C(=O)/C=C\C(=O)c2ccc(C)cc2)cc1 |  | inconclusive: 16.4 µM [cytotoxic, single point]
O=C(N/N=C/c1ccccn1)c1ccc(NC(=O)c2ccccc2Cl)cc1 |  | inconclusive: 6.51 µM [activator, partial curve, poor fit]
Cc1ccc(CNC(=O)CN2C(=O)NC(C)(c3ccccc3Cl)C2=O)cc1 (stereo unspecified) |  | inconclusive: 6.51 µM [rising, single point]
COc1cccc(OCCNC(=O)Nc2cc(F)c(F)cc2Cl)c1 |  | inconclusive: 0.116 µM [falling, partial curve, poor fit]
NNc1ccc(Cc2ccc(Cl)cc2Cl)nn1 |  | inconclusive: 6.51 µM [falling, single point]
COc1ccc(N(Cc2ccccc2)S(=O)(=O)c2cccc(C(=O)NCC3CCCO3)c2)cc1 (stereo unspecified) | inconclusive | 
COC(=O)c1nnn(CC(=O)NC(=O)Nc2cccc(Cl)c2C)c1C(=O)OC | inconclusive: 10.5% | 
CCOC(=O)c1cnc2nc(C)[nH]n2c1=O | inconclusive: -14.4% | 
COC(=O)N/N=C/c1cn(Cc2ccc(Cl)cc2Cl)c2ccccc12 |  | inconclusive: 9.2 µM [falling, partial curve, poor fit]

# Reference: PubChem BioAssay AID2685 (National Center for Advancing Translational Sciences (NCATS), 2010)
